Assay results as given in US20020166132A1, “System for regulating in vivo the expression of a transgene by conditional inhibition” (priority 2000, published 2002).
At least one compound was matched to its structure with a doubt left.

Tested on: SeAP reporter gene
Assay: Circulating SeAP after intramuscular injection and electrotransfer of plasmids into tibialis cranialis muscle of SCID mice
Assay type: in vivo
Procedure: The 6-week-old SCID mice were first anesthetized with a Ketamine/Xylazine mixture (250 μl/mouse). The various plasmids in solution in 150 mM NaCl were then injected intramuscularly into the tibialis cranialis muscle of the mice. […] The amount of circulating SeAP was regularly monitored by taking blood samples and assaying the phosphatase activity using the Phospha-Light kit (Tropix).

CN(C)[C@@H]1C(O)=C(C(N)=O)C(=O)[C@@]2(O)C(O)=C3C(=O)c4c(O)cccc4[C@@](C)(O)[C@H]3C[C@@H]12 [tetracycline]
expression of SeAP after the repressor agent was stopped on the 10th day (batch 3: D15, D22, D30 and D63, FIG. 16B): Inhibition of the expression of the exogenous SeAP reporter gene could again be observed | level of the SeAP reporter gene in the presence of the repressor agent (pXL3010+pTet-tTAk+pTetSeAPantisense, tetracycline drink 2 mg/ml, batch 3, D8, FIG. 16B): satisfactory biological level
